Experimental data reported in patent US20120192315A1, “RESISTANCE GENES AND PROTEINS ACTIVE AGAINST FUSARIUM ROOT ROTS, CYST NEMATODES AND SOYBEAN SUDDEN DEATH SYNDROME AND METHODS EMPLOYING SAME” (Southern Illinois University Carbondale, priority 2011, published 2012).
These are yes or no findings as the source states them, for the method shown. Some binding calls cover weakened binding; strength is not graded here. Sequences can lack the tags named with a protein.

Columns and labels:
[1] = target: T1, purified GmRLK18-1 LRR domain (6x his-RHG1) (Glycine max); test: Far-Western of root proteins at 42 dap (28 dai), Anti-His-HRP detection, Q-TOF MS-MS
T1 sequence: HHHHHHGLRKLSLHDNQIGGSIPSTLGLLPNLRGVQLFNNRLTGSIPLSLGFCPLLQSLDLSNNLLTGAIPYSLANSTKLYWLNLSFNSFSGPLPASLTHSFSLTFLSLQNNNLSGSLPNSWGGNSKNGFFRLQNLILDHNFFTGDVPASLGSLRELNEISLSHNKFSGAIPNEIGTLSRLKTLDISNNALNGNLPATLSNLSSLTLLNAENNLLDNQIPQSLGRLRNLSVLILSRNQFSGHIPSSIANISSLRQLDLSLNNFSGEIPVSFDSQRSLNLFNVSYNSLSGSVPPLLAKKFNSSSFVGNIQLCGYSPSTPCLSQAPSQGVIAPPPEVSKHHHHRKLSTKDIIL

[2] = target: T1, purified GmRLK18-1 LRR domain (6x his-RHG1) (Glycine max); test: Far-Western of 2D gel separated soybean root proteins probed with the His tagged LRR domain, MS identification

B1: methionine synthase [Glycine max] (enzyme)
chain: MASHIVGYPRMGPKRELKFALESFWDGKSSAEDLQKVSSDLRASIWKQMADAGIKYIPSNTFSHYDQVLDATATLGAVPPRYGWTGGEIGFDTYFSMARGNATVPAMEMTKWFDTNYHFIVPELGPDVNFTYASHKAVDEYKEAKALGVDTVPVLVGPVTYLLLSKPAKGVEKSFSLLSLLPKVLAVYKEVIADLKAAGASWIQFDEPTLVLDLESHKLQAFTDAYAELAPALSGLNVLVETYFADIPAEAYKTLTSLNGVTAYGFDLVRGTNTLDLIKGGFPSGKYLFAGVVDGRNIWANDLAASLTTLQGLEGIVGKDKLVVSTSSSLLHTAVDLVNETKLDDEIKSWLAFAAQKIVEVNALAKALSGHKDEAFFSGNAAALASRKSSPRVTNEAVQKAAAALKGSDHRRATNVSARLDSQQKKLNLPILPTTTIGSFPQTVELRRVRREFKANKISEEEYVKSIKEEIRKVVELQEELDIDVLVHGEPERNDMVEYFGEQLSGFAFTVNGWVQSYGSRCVKPPIIYGDVSRPKPMTVFWSSLAQSFTKRPMKGMLTGPVTILNWSFVRNDQPRSETTYQIALSIKDEVEDLEKAGITVIQIDEAALREGLPLRKSEQAHYLDWAVHAFRITNVGVQDTTQIHTHMCYSNFNDIIHSIIDMDADVITIENSRSDEKLLSVFREGVKYGAGIGPGVYDIHSPRIPPTEEIADRINKMLAVLEKNILWVNPDCGLKTRKYTEVKPALTNMVAAAKLIRNELAK
**Q.** Which results are given for B1?
**A.** binding [1]: binds; binding [2]: binds
